# Data as given in PubChem BioAssay AID602196 (INSERM, 2012).
# Test: 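Genes whose knock-down alters cisplatin killing of lung cancer cells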
# System: human A549 lung cancer cells
# Reagents: siRNA pair against human genes
# Time to read-out: 48 h transfection before cisplatin; time from cisplatin to read-out not stated
# Conditions: cisplatin at a dose killing half of control-siRNA cells; exact dose and duration not given
# Measured: 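Cisplatin cell death as a shift from the 50% death seen with control siRNA; siRNAs toxic or growth-blocking alone scored 0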
# Reading the numbers: two-siRNA summed score (-2 to +2): higher = both siRNAs protect from cisplatin killing; -2 means both sensitise; mean protection from cisplatin (shift in death): higher = protection from cisplatin killing
# Active means: 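Each siRNA scores 0 if harmful alone by LDH or WST-1, otherwise +1 if it reduces and -1 if it increases cisplatin killing; a gene is active when both siRNAs agree (sum +2 or -2)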
# Meaning of the calls: active = both siRNAs shift cisplatin killing the same way; inactive = no consistent shift, or siRNA harmful alone
# The deposit covers about 23,000 reagents; below is a part drawn at random. Of all reagents, 455 (2%) were called active. 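Active includes both protection and sensitisation; some change values fall well beyond the stated -50 to +50 range.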 Further read-outs or replicates are left out here. Not stated in the record: the amount of reagent.
gene knocked down,two-siRNA summed score (-2 to +2),mean protection from cisplatin (shift in death) (%),Call
PCDHA10,0,-1.8,inactive
RIMS4,0,0.1,inactive
LOC440056,1,20.6,inactive
LINC01085,0,-0.8,inactive
SLC5A12,0,-16.1,inactive
KIAA1915,0,7.5,inactive
AMBP,-1,-12.8,inactive
OR2L13,0,0.5,inactive
LOC401676 (retired record),2,13.5,active
ARHGDIA,0,0.3,inactive
CHD4,0,-4.1,inactive
SMC1A,0,6.5,inactive
LOC339274,0,14.7,inactive
XYLT2,1,6,inactive
CMKLR1,0,9.7,inactive
KLHDC4,0,1.5,inactive
ABHD17A,0,0.7,inactive
TSPAN1,0,-4,inactive
TBC1D5,1,12.4,inactive
CHAT,-2,-12.1,active
PLPP6,0,0.7,inactive
LMTK1,2,19.8,active
CDC42SE1,0,3.8,inactive
SLC29A3,0,11.3,inactive
SLC47A2,0,1.7,inactive
TNRC6A,0,14.1,inactive
WDR3,0,-7,inactive
TTC8,1,14.3,inactive
LARGE2,0,0.6,inactive
RTP5,0,6.9,inactive
CCZ1P-OR7E38P,0,7.8,inactive
CEP170,0,-5.8,inactive
ZNF605,0,4.9,inactive
ZNF835,0,14.8,inactive
NRROS,0,9.1,inactive
LOC440419,0,10.5,inactive
MIER1,0,7.4,inactive
MED16,0,-11.7,inactive
BAD,0,-1.2,inactive

Hits (from the list above):
gene knocked down,two-siRNA summed score (-2 to +2),mean protection from cisplatin (shift in death) (%),Call
LOC401676 (retired record),2,13.5,active
CHAT,-2,-12.1,active
LMTK1,2,19.8,active
